The results in this text go back to paper PMC10604874.

Protein sequences, listed by entry. Tags and fused reporters are not part of them. Lines headed by an entry give the natural chain unless they say otherwise; changes in a name come on top.
UniProt A0A7L7YYC3: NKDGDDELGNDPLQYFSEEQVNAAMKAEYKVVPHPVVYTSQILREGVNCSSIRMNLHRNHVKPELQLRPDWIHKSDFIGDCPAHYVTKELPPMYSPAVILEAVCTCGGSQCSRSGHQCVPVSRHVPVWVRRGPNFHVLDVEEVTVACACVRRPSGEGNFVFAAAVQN
UniProt A0A7L7YY96: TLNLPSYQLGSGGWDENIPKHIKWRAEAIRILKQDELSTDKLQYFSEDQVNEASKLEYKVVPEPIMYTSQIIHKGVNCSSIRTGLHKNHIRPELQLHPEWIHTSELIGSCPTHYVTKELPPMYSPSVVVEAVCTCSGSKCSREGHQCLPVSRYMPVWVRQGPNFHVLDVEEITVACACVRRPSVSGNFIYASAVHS

The target in this assay is recombinant protein of the Lvit-IL-17R extracellular domain (Lysmata vittata). In words: pull-down; GST-tagged rIL-17R or GST on Glutathione Sepharose 4B; rCFSH1a/rCFSH1b added, 4 °C for 1 h; washed with 10 mM PBS pH 7.4; eluted with 50 mM Tris-Cl, 10 mM reduced glutathione, pH 8.0; SDS-PAGE and Western blot with anti-His antibody; both purified.

These are yes or no findings as the source states them, for the method shown. Binding can be weak; no strength is given.

As to “Lvit-CFSH1a recombinant protein (crustacean female sex hormone 1a of Lysmata vittata) (from UniProt A0A7L7YYC3) (ligand)”, the binding result is reported as “binds”.
Next, “Lvit-CFSH1b recombinant protein (crustacean female sex hormone 1b of Lysmata vittata) (from UniProt A0A7L7YY96) (ligand)”: “binds”.
